The other results are listed elsewhere or left out. Further columns of the screen follow, without active or inactive calls. Compounds called inactive in the main read-out are mostly missing here. The note in brackets gives the kind of curve behind each potency; many fits are weak.
Experiment: qHTS Assay to Find Inhibitors of Chronic Active B-Cell Receptor Signaling
Settings: ABC-DLBCL IkBa-CBG/CBR reporter, luminescence ratio (green luciferase fused to IkBa over red control in TMD8 lymphoma cells), 4 h
Procedure, shortened: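 Doxycycline induced both beetle luciferases in TMD8 lymphoma cells; IKK-driven degradation limits the IkappaBalpha-fused green signal, while red luminescence normalises for cell number and nonspecific effects. Compounds tested up to 46 uM, 4 hrs.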

[1] = measured here: CBR red luminescence, cell number

SMILES | AC50 [1] | AC50 (measured here: IkBa-CBG green luminescence)
COc1ccc(C(=O)OCc2c(F)cccc2Cl)cc1S(=O)(=O)N1CCOCC1 | 1.46 µM [rising, full curve] | –
N#C/C(=C/c1ccc(F)cc1)S(=O)(=O)c1ccccc1 | 35.5 µM [falling, partial curve, poor fit] | –
N#CC1=C2SCC(O)(c3ccccc3)N2C(=O)CC1c1ccccc1 (centres undefined) | – | 11.2 µM [falling, partial curve]
N#C/C(=C\c1ccc(F)c(Br)c1)C(=O)NC1CC1 | 3.98 µM [rising, full curve, poor fit] | –
CCOC(=O)c1cc(-c2ccc3c(c2)OCCO3)n[nH]1 | 11.2 µM [falling, single point] | –
COc1ccc(C2=NN(C(=O)c3cccs3)C(c3ccccc3O)C2)cc1 (centres undefined) | 35.5 µM [falling, single point] | –
Cc1cccc(C(=O)N[C@H](C(=O)Nc2ccc(C)c(S(=O)(=O)N(C)C)c2)C(C)C)c1 | 2.82 µM [rising, full curve, poor fit] | –
Cc1ccc(S(=O)(=O)N2CCN(C(=O)CSc3nc4ccccc4o3)C2)cc1 | 10 µM [falling, partial curve] | –
O=C(Nc1nccs1)c1cc(S(=O)(=O)N2CCOCC2)ccc1Cl | 0.13 µM [falling, full curve, poor fit] | –
COc1cc(/C=C2\CCC/C(=C\c3ccc(O)c(OC)c3)C2=O)ccc1O | 35.5 µM [falling, single point] | –
O=C(CSc1ncccc1-c1nc2ccccc2[nH]1)N1CCc2ccccc21 | 3.66 µM [falling, partial curve] | –
N#CC(C#N)=C(Nc1ccc(F)cc1)SCc1cccc(F)c1 | 14.6 µM [falling, single point] | –
COc1ccccc1-n1c(SCC(=O)N2CCCCC2)nc(O)c(Cc2ccccc2)c1=O | 35.5 µM [falling, single point] | –
O=C(CCl)N1CCCC1c1ccc2c(c1)OCCO2 (centres undefined) | 35.5 µM [falling, partial curve, poor fit] | –
CC(=O)NNC(=S)NC(=O)c1cccc([N+](=O)[O-])c1 | 29.1 µM [rising, single point] | –
COc1ccc(CCNC(=O)CSc2nc(N)c(C#N)c(-c3cccs3)c2C#N)cc1OC | 8.91 µM [falling, partial curve, poor fit] | –
Cn1ccnc1SCC(=O)Nc1ccc(Cl)cn1 | 11.2 µM [falling, partial curve, poor fit] | –
Cc1ccc(C)c(-n2c(-c3csc(C)c3C)n[nH]c2=S)c1 | 29.1 µM [rising, single point] | –
Cc1ccc(N(Cc2cc3ccccc3[nH]c2=O)C(=O)c2ccco2)c(C)c1 | 0.058 µM [falling, full curve, poor fit] | –
Cc1ccccc1OCC(=O)N/N=C1\CCOc2c(C)cccc21 | 0.562 µM [rising, full curve, poor fit] | –
O=C(CSCC(=O)N1CCCCC1)Nc1nc(-c2ccccc2)c(-c2ccccc2)s1 | 20.6 µM [falling, partial curve, poor fit] | –
CNC(=O)CSc1nnc(-c2cccs2)o1 | 29.1 µM [rising, partial curve, poor fit] | –

2 records picked at random from the list so far:
SMILES | AC50 [1] | AC50 (measured here: IkBa-CBG green luminescence)
N#CC(C#N)=C(Nc1ccc(F)cc1)SCc1cccc(F)c1 | 14.6 µM [falling, single point] | –
N#CC1=C2SCC(O)(c3ccccc3)N2C(=O)CC1c1ccccc1 (centres undefined) | – | 11.2 µM [falling, partial curve]

Later entries:

SMILES | AC50 [1] | AC50 (measured here: IkBa-CBG green luminescence)
CCOC(=O)c1ccc(N2C(=O)CC(Nc3ccc(O)cc3)C2=O)cc1 (centres undefined) | 35.5 µM [falling, single point] | –
CCCC(=O)N(c1ccc2oc(C)c(C(C)=O)c2c1)S(=O)(=O)c1ccc(C)cc1 | 3.98 µM [rising, partial curve, poor fit] | –
CSc1ccc(NC(=O)N2CCN(c3nc4ccccc4s3)CC2)cc1 | 0.13 µM [rising, full curve, poor fit] | –
CCCc1nc2nc(C)c(NS(=O)(=O)c3ccc(C4CCCCC4)cc3)c(=O)n2[nH]1 | 3.98 µM [rising, partial curve, poor fit] | –
O=C(N/N=C/c1ccc(O)cc1O)/C(=C/c1ccccc1)CCO | 2.91 µM [falling, full curve] | –
COc1ccc(/C=C2\SC(=S)N(CCC(=O)Nc3ccc(O)cc3)C2=O)cc1 | 10 µM [falling, partial curve] | –
Cc1cc(NC(=O)c2ccccc2)nc2c1c(=O)oc1ccccc12 | 6.31 µM [falling, partial curve] | –
COc1ccc(NC(=O)C(=O)NNC(=O)c2cccs2)cc1 | 14.6 µM [falling, partial curve] | –
CC(=O)c1sc2nsc(SCCN3CCCCC3)c2c1N | 17.8 µM [falling, single point] | –
COc1ccc(Nc2nnc(-c3ccc(C(N)=O)cc3)c3ccccc23)cc1 | 15.8 µM [falling, partial curve, poor fit] | –
COc1cc(OC)cc(C(=O)NNC(=O)c2cc3ccccc3cc2O)c1 | 0.501 µM [falling, full curve, poor fit] | –
CCn1c(=O)c2cc(C(=O)N(C)c3ccc(OC)cc3OC)sc2c2ccccc21 | 11.2 µM [falling, single point] | –
O=C(N/N=C/c1ccc(N2CCOCC2)s1)c1ccccc1Br | 5.62 µM [falling, full curve] | –
Oc1c(C=Nc2ccccc2Cl)[nH]c2ccccc12 | 14.1 µM [falling, single point] | –
O=C(N/N=C/C=C\c1ccccc1)c1cnccn1 | 2 µM [falling, full curve, poor fit] | –
CN1C(C(=O)Nc2ccccn2)=C(O)c2sccc2S1(=O)=O | 35.5 µM [falling, single point] | –
COc1cc(OC)c(C(=O)Nc2ccccc2-c2ccccc2)cc1OC | 29.1 µM [falling, single point] | –
CCOc1ccccc1C(=O)N[C@H](C(=O)OCc1csc(CC(=O)Nc2ccc(C)cc2)n1)C(C)C | 29.1 µM [falling, single point] | –
COc1ccc(CNC(=O)C(c2ccco2)N(Cc2cccs2)C(=O)Cc2cccs2)cc1 (centres undefined) | 0.82 µM [rising, full curve, poor fit] | –
COc1ccc(-c2[nH]ncc2N=Nc2cc(C)cc(C)c2)cc1 | 12.6 µM [rising, partial curve] | –
COc1ccc(C2=NN(C(=O)c3cccs3)C(O)(C(F)(F)F)C2)cc1 (centres undefined) | 15.8 µM [falling, single point] | –
CCOC(=O)c1cccc(OC(=O)CCNC(=O)c2ccc(Cl)cc2)c1 | 25.9 µM [rising, single point] | –

SMILES | AC50 [1] | AC50 (measured here: IkBa-CBG green luminescence)
O=C(CN1C(=O)S/C(=C/c2ccncc2)C1=O)N1CCOCC1 | 20.6 µM [falling, single point] | –
O=C(CC1NC(=O)NC1=O)Nc1ccc(Cl)cc1 (centres undefined) | 20.6 µM [falling, partial curve, poor fit] | –
O=C(COC(=O)c1cc(S(=O)(=O)N2CCCC2)ccc1O)Nc1ccccc1Br | 29.1 µM [rising, partial curve, poor fit] | –
COc1ccc(-c2nc(-c3ccccn3)no2)cc1 | 1.12 µM [falling, full curve] | –
COc1cc(SC)ccc1C(=O)Nc1c(Cl)cncc1Cl | 35.5 µM [falling, single point] | –
Cc1cc(C(=O)Cn2cnc3cc(F)ccc3c2=O)c(C)n1C1CC1 | 9.2 µM [rising, partial curve] | –
Cc1nonc1C(=O)N/N=C/c1ccc(O)cc1 | 14.6 µM [falling, partial curve] | –
Cc1cc(N/N=C\c2ccccc2)nc(-c2ccccc2O)n1 | 13 µM [falling, partial curve, poor fit] | –
CCC1=C(OC(=O)N(CC)CC)N2C(=O)OC(=NCCc3c[nH]c4ccccc34)[C@]2(Cc2ccccc2)[C@H]2C1=CC[C@H]1C(=O)NC(=O)[C@H]12 | 20 µM [falling, partial curve, poor fit] | –
CC(C)c1cc(C(C)C)n2nc(N)nc2n1 | 0.794 µM [rising, full curve] | –
COC(=O)c1ccc(OCC(=O)NCCC2=CCCCC2)c(OC)c1 | 0.731 µM [rising, partial curve, poor fit] | –
CCN(CC)c1ccc(NC(=O)CSc2nc3nc(C)cc(C)c3c(=O)[nH]2)cc1 | 4.61 µM [falling, partial curve, poor fit] | –
COc1cccc(NC(=O)CN(C)C(=O)CSc2ccc3c(c2)OCCO3)c1 | 29.1 µM [falling, single point] | –
COc1ccc(NC(=O)N(C)C[C@H]2Oc3c(NC(=O)Nc4ccc(C(F)(F)F)cc4)cccc3C(=O)N([C@H](C)CO)C[C@@H]2C)cc1 | 18.4 µM [falling, single point] | –
Cc1cc(CNC(=O)COc2ccccc2F)c2ccccc2n1 | 31.6 µM [falling, single point] | –
CCN(C(=O)CSc1nncn1-c1ccccc1)c1c(N)n(Cc2ccccc2)c(=O)[nH]c1=O | 32.6 µM [rising, partial curve, poor fit] | –
O=c1[nH]cc(COCC(F)CCl)c(=O)[nH]1 (centres undefined) | 7.94 µM [rising, partial curve, poor fit] | –
C=CCn1cc(/C=N/Nc2nc3ccccc3[nH]2)c2ccccc21 | 29.1 µM [falling, single point] | –
Cc1nnc(N/N=C\c2ccc(-c3ccccc3[N+](=O)[O-])o2)n1N | 23.1 µM [falling, single point] | –
Cc1ccccc1C(=O)Nc1ccccc1Sc1ccccc1 | 20.6 µM [rising, single point] | –

From PubChem BioAssay AID493014 (National Center for Advancing Translational Sciences (NCATS), 2011)
